These are yes or no findings as the source states them, for the method shown. Binding seen in cells or lysates may run through a third protein. Some binding calls cover weakened binding; strength is not graded here.
B1: P-selectin (protein, UniProt Q01102 42-768)
chain: WTYNYSTKAYSWNNSRVFCRRHFTDLVAIQNKNEIAHLNDVIPFFNSYYWIGIRKINNKWTWVGTNKTLTEEAENWADNEPNNKKNNQDCVEIYIKSNSAPGKWNDEPCFKRKRALCYTASCQDMSCSNQGECIETIGSYTCSCYPGFYGPECEYVKECGKVNIPQHVLMNCSHPLGEFSFNSQCTFSCAEGYELDGPGELQCLASGIWTNNPPKCDAVQCQSLEAPPHGTMACMHPIAAFAYDSSCKFECQPGYRARGSNTLHCTGSGQWSEPLPTCEAIACEPPEIPIHGSMDCVPSTGTFGYNSSCTFLCAEGFVLKGNDAIQCADSGQWTAPAPFCEALQCPEFPVPSKAQVNCSDPFGTLTYQSVCSFSCDEGSLLVGASVIRCLATGHWNGAPPECQAVSCAPMLSPENGSMTCVQPLGNSTYKSTCQFMCDEGFYLSGPERLDCSPSGHWTGTPPTCEAIKCPGIFAPEQGNLDCSHVHGEFGVGSICHFSCNEDFELLGSENVECTVSGRWSAPPPTCKGITSLPAPAVRCPALTTPGQGTMSCQHHLGSFGPNTTCYFGCKTGFTLRGANSLRCRASGQWTAVTPMCRAVKCSELHMDTAVAMNCSNPWGNFSYGSTCTFQCPEGQSLNGSVRATCREDGHWSDAMPTCQAGTLTIQEALTYLGGAVASTTGLAVGGTLLALLRKRLRKKDDGKCPLNPHSHLGTYGVFTNAAYDPTP

Sequences of proteins named here, by UniProt entry; tags and fusion partners are left off. A change or cut given only in a name is not applied to a line headed by its entry.
UniProt P26039: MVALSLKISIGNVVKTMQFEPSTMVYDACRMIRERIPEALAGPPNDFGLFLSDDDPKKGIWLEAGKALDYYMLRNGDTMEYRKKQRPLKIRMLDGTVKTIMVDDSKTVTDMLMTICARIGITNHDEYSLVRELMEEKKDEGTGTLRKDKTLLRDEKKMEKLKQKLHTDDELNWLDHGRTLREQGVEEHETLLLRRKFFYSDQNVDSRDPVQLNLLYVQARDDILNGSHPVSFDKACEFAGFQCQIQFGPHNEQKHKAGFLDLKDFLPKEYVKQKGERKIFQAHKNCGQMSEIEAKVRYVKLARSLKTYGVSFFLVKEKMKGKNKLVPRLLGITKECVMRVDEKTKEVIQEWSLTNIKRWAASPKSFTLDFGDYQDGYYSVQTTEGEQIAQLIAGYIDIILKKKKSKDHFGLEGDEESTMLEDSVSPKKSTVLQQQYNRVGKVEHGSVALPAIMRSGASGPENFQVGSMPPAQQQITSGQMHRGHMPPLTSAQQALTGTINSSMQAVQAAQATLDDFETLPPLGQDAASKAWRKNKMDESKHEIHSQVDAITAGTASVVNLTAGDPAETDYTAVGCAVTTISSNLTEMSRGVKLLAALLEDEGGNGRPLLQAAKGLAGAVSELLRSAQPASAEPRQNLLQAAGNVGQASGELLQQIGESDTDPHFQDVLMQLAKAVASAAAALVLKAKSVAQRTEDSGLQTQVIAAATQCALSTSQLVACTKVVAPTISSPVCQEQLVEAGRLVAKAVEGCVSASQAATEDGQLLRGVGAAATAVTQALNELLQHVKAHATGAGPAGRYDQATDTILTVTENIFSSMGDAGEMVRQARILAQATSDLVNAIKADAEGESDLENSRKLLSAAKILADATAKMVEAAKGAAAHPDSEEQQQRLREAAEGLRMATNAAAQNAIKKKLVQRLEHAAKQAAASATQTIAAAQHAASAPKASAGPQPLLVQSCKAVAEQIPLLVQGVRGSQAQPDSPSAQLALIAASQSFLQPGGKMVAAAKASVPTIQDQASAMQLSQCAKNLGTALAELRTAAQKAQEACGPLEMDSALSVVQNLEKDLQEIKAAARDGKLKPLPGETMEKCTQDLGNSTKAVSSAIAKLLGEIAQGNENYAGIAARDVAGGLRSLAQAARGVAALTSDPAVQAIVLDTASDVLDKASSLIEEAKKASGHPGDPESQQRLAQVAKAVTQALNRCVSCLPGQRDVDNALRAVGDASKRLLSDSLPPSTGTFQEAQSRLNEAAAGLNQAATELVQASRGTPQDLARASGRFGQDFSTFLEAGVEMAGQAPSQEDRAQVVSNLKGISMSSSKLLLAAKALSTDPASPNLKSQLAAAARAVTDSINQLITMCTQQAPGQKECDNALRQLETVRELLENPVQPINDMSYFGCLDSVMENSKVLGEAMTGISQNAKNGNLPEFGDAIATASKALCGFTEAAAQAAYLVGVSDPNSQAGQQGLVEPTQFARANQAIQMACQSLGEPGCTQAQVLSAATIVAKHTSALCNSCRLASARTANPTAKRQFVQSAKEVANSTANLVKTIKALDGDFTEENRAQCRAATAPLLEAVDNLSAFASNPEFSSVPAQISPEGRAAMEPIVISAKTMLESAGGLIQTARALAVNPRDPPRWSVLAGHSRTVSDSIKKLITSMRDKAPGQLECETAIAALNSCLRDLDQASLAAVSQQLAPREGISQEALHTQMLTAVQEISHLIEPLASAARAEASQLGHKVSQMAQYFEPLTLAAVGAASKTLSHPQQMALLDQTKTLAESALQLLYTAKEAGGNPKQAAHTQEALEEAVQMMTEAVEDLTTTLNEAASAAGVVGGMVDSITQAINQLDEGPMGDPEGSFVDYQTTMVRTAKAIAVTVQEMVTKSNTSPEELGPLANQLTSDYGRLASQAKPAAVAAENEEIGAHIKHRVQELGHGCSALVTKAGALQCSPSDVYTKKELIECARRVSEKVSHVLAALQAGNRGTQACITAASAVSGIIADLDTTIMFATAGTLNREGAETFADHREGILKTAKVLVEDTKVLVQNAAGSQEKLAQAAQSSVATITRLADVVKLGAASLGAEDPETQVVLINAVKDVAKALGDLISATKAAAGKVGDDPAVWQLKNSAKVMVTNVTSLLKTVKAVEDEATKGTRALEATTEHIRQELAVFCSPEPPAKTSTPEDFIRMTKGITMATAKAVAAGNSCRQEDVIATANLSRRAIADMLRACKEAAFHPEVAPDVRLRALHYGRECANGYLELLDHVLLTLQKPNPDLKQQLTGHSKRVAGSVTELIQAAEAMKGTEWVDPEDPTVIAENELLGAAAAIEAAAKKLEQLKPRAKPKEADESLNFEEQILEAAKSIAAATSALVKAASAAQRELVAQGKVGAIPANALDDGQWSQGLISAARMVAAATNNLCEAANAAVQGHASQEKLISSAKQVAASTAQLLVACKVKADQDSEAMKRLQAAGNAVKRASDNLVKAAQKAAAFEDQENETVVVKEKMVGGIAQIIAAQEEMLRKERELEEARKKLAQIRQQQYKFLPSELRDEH
UniProt Q9QUM0: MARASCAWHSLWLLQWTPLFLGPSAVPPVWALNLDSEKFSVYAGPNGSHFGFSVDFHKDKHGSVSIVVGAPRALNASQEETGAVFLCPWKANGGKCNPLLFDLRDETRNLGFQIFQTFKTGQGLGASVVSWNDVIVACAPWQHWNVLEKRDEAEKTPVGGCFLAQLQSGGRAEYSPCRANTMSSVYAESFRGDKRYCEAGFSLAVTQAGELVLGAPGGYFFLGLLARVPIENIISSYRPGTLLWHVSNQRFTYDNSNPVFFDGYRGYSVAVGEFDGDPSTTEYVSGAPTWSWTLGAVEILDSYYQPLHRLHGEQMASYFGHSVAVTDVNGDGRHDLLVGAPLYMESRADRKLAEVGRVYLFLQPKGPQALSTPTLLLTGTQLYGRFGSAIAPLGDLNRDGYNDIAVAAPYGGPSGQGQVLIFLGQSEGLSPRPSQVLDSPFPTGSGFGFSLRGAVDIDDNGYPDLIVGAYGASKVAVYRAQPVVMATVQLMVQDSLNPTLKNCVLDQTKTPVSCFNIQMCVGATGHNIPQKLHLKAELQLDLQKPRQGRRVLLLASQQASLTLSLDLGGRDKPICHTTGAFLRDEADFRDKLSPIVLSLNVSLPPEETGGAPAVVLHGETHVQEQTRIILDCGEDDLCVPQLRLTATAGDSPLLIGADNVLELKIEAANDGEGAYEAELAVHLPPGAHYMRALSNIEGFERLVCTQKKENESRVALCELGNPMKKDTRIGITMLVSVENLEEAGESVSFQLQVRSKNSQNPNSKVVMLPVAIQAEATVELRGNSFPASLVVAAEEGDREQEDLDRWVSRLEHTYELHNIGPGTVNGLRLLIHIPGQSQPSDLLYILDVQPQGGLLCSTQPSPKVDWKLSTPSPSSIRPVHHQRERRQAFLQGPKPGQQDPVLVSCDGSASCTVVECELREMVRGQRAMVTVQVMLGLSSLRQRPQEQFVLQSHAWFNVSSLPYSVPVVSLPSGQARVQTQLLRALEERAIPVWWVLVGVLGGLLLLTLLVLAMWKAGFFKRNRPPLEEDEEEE

Tests used:
[1] = target: talin1 (mouse (endogenous in platelets of C57BL/6J and P-sel-/- mice)) (UniProt P26039); test: co-IP; lysates of wild-type platelets from C57BL/6J mice; immunoprecipitation with anti-P-selectin Ab or anti-talin1 mAb, extensive washing, immunoblot
[2] = target: talin1 (mouse (endogenous in platelets of C57BL/6J and P-sel-/- mice)) (UniProt P26039); test: co-IP; lysates of platelets from P-sel-/- mice; immunoprecipitation with anti-talin1 mAb, immunoblot for αIIb
[3] = target: talin1 (mouse (endogenous in platelets of C57BL/6J and P-sel-/- mice)) (UniProt P26039); test: co-IP; lysates of P-sel-/- platelets incubated with the cell-permeable P-sel-CT peptide TAT-CT (control peptide TAT); immunoprecipitation with anti-talin1 mAb, immunoblot for αIIb and talin1
[4] = target: T1, P-selectin (mouse (endogenous in platelets of C57BL/6J mice)) (UniProt Q01102); test: co-IP; lysates of wild-type platelets from C57BL/6J mice; immunoprecipitation with anti-P-selectin Ab or anti-talin1 mAb, extensive washing, immunoblot
T1 sequence: B1 chain

Molecule | binding [1] | binding [2] | binding [3] | binding [4]
integrin αIIbβ3 (from UniProt Q9QUM0 32-1033; O54890 26-787) (complex) | binds | binds weakly | binds | 
talin1 (from UniProt P26039 1-2541) |  |  |  | binds
B1 | binds |  |  | 

From PMC4466636
